From the supplement of paper PMC4604168 (melanoma cell lines)
This is one part of the list. Repeats are few or missing, and single values can be far off.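 Cells were imaged in 1,536-well plates, and nuclei stained with an antibody against cleaved PARP were counted against all DNA-stained nuclei to give the apoptosis fraction. Screening doses were chosen to leave most cells alive, and resting and induced cleaved-PARP levels differ strongly between cell lines.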

system: LB2518-MEL; experiment: cleaved PARP positive nuclei fraction relative to DMSO control; melanoma cells; higher = more apoptosis; settings: library dose: low library concentration; 72 h

First: CC(C)C[C@H](NC(=O)[C@H](Cc1ccccc1)NC(=O)c1cnccn1)B(O)O [Bortezomib] + O=C(O)c1ccc(-c2c[nH]c3ncc(-c4ccccc4)cc23)cc1C1CCCC1 [GSK650394] (first compound 0.001 µM, partner dose 0.16 µM)
Second: CCCS(=O)(=O)Nc1ccc(F)c(C(=O)c2c[nH]c3ncc(Cl)cc23)c1F + C=CCn1c(=O)c2cnc(Nc3ccc(N4CCN(C)CC4)cc3)nc2n1-c1cccc(C(C)(C)O)n1 [MK1775] (first compound 0.08 µM, partner dose 0.02 µM)
The “cleaved PARP positive nuclei fraction” value of the first is higher: 232% for the first, 114% for the second.

First: C[C@@H](Oc1cc(-c2cnn(C3CCNCC3)c2)cnc1N)c1c(Cl)ccc(F)c1Cl [Crizotinib] + C[C@@H]1CCN(C(=O)CC#N)C[C@@H]1N(C)c1ncnc2[nH]ccc12 [CP690550] (first compound 0.2 µM, partner dose 1 µM)
Second: CCCS(=O)(=O)Nc1ccc(F)c(C(=O)c2c[nH]c3ncc(Cl)cc23)c1F + CN(NC(=O)CC(=O)NN(C)C(=S)c1ccccc1)C(=S)c1ccccc1 [STA4783] (first compound 0.08 µM, partner dose 0.006 µM)
The “cleaved PARP positive nuclei fraction” value of the first is lower: 94.6% for the first, 98.3% for the second.

Compared with `CC(C)C[C@H](NC(=O)[C@H](Cc1ccccc1)NC(=O)c1cnccn1)B(O)O` [Bortezomib] + Cc1cc(N2CCOCC2)cc2[nH]c(-c3c(NC[C@@H](O)c4cccc(Cl)c4)cc[nH]c3=O)nc12 [BMS536924] (first compound 0.001 µM, partner dose 0.2 µM), `Cc1cc(Nc2cc(N3CCN(C)CC3)nc(/C=C/c3ccccc3)n2)n[nH]1` + CO[C@@H]1[C@H](N(C)C(=O)c2ccccc2)C[C@H]2O[C@]1(C)n1c3ccccc3c3c4c(c5c6ccccc6n2c5c31)C(=O)NC4 [Midostaurin] (first compound 0.04 µM, partner dose 0.08 µM) is lower in “cleaved PARP positive nuclei fraction” value: 596% for the first, 160% for the second.

Compared with `Nc1ccn([C@@H]2O[C@H](CO)[C@@H](O)C2(F)F)c(=O)n1` [gemcitabine] + CC(C)(C)c1cnc(CSc2cnc(NC(=O)C3CCNCC3)s2)o1 [SNS-032] (first compound 0.0004 µM, partner dose 0.01 µM), `CC(C)C[C@H](NC(=O)[C@H](Cc1ccccc1)NC(=O)c1cnccn1)B(O)O` [Bortezomib] + Cc1ccc(NC(=O)c2cccc(N(C)C)c2)cc1NC(=O)c1ccc(O)cc1 [ZM336372] (first compound 0.001 µM, partner dose 2 µM) is higher in “cleaved PARP positive nuclei fraction” value: 112% for the first, 171% for the second.

Compared with `Nc1ccn([C@@H]2O[C@H](CO)[C@@H](O)C2(F)F)c(=O)n1` [gemcitabine] + CC1(C)NC(=O)N(c2ccc([N+](=O)[O-])c(C(F)(F)F)c2)C1=O [nilutamide] (first compound 0.0004 µM, partner dose 1 µM), `O=C(O)[C@@H]1[O][Sb](=[O])([O][Sb]2(=[O])[O][C@H]([C@H](O)CO)[C@H](O)[C@H](C(=O)O)[O]2)[O][C@H]([C@H](O)CO)[C@@H]1O` (stereo partly specified) [stibogluconate] + C[C@@H]1CCN(C(=O)CC#N)C[C@@H]1N(C)c1ncnc2[nH]ccc12 [CP690550] (first compound 2 µM, partner dose 1 µM) is lower in “cleaved PARP positive nuclei fraction” value: 103% for the first, 91.8% for the second.

`C=C(c1ccc(C(=O)O)cc1)c1cc2c(cc1C)C(C)(C)CCC2(C)C` [Bexarotene] + Cc1ccc(NC(=O)c2cccc(N(C)C)c2)cc1NC(=O)c1ccc(O)cc1 [ZM336372] (first compound 2 µM, partner dose 2 µM) was tested, and the “cleaved PARP positive nuclei fraction” value was 147%.
